Experimental data taken from PubChem BioAssay AID2685 (National Center for Advancing Translational Sciences (NCATS), 2010).
This is one part of the list.

Assay: qHTS Assay for Lipid Storage Modulators in Drosophila S3 Cells
Settings: BODIPY lipid droplet fluorescence, 18-24 h, measured here: cell count max response, cells fed with added oleic acid
Compound `O=C(OC1CN2CCC1CC2)c1ccc([N+](=O)[O-])cc1` (stereo not given) has a cell number change of -12.1%. In the case of `CCCOc1ccc(C(=O)NCC2(N(C)C)CCCCC2)cc1OC`, the cell number change is reported as 9.58%. Work on `O=C(NCC1(N2CCCCC2)CCCCC1)c1cccc([N+](=O)[O-])c1` yielded a cell number change of -17.5%. `CSc1ccc(C(=O)NCC2(N3CCOCC3)CCCCC2)cc1` showed a cell number change of -7.05%. With `CCOC(=O)N1CCC(Nc2cccc(C)c2)CC1` the cell number change was 2.49%. In the case of `CCOc1ccc(C)cc1CN(CCCl)CCCl`, the cell number change is reported as -0.499%. With `Cc1cc(C)cc(N(C(=O)c2ccccc2)C2CCN(C(=O)OC(C)(C)C)CC2)c1` the cell number change was -15%. With `N#CC1(Nc2ccccc2)CCN(Cc2ccccc2)CC1` the cell number change was -0.435%. With `COc1ccc(C(=O)NCC2(N3CCCCC3)CCCCC2)c(OC)c1OC` the cell number change was 15%. For `CC(C)(C)OC(=O)N1CCC(N(C(=O)c2ccccc2)c2ccc(F)cc2)CC1`, the cell number change was -8.33%. In the case of `O=C(NCC1(N2CCCCC2)CCCCC1)c1ccc(=O)[nH]c1`, the cell number change is reported as 19.7%. `COc1cccc(C(=O)N(c2cc(C)cc(C)c2)C2CCN(C(=O)OC(C)(C)C)CC2)c1` showed a cell number change of -23.5%. `CN1CCC(Nc2ccc(Cl)cc2)CC1` showed a cell number change of 16.3%. With `CCCOc1ccc(C)cc1CN(CCCl)CCCl` the cell number change was -3.83%. Work on `CN1CCC(Nc2ccc(F)c(Cl)c2)CC1` yielded a cell number change of -13.8%. With `O=C(O)C1(Nc2ccccc2)CCN(Cc2ccccc2)CC1` the cell number change was -0.508%. With `CC(C)(C)OC(=O)N1CCC(Nc2ccccc2)CC1` the cell number change was -4.44%. `O=C(NCC1(N2CCCCC2)CCCCC1)c1ccco1` gave a cell number change of -1.24%. Work on `Cc1ccc(C(=O)NCC2(N3CCCCC3)CCCCC2)o1` yielded a cell number change of -7.59%. `CN(C)C1(CNC(=O)c2cccc(C#N)c2)CCCCC1` showed a cell number change of 6.34%. With `CC(C)(C)OC(=O)N1CCC(N(C(=O)c2ccccc2)c2ccc(Cl)cc2)CC1` the cell number change was -18.8%. `CCOC(=O)C(CC)C1=NC(C)(C)Cc2ccccc21.O=[N+]([O-])c1cc([N+](=O)[O-])c(O)c([N+](=O)[O-])c1` (stereo not given) showed a cell number change of 10.1%. In the case of `CCOC(=O)N1CCC(Nc2ccc(C)cc2)CC1`, the cell number change is reported as -0.529%. Compound `N/C(=N\O)c1c(N)no[n+]1[O-]` has a cell number change of -1.95%. `O=C(NCC1(N2CCOCC2)CCCCC1)c1cc(Br)ccc1Cl` showed a cell number change of -4.8%.
